Among the data in PMC4383338 are binding values, retold here.

Sequences of proteins named here, by UniProt entry; tags and fusion partners are left off. Residues count along the entry.
UniProt O00206, residues 24-839: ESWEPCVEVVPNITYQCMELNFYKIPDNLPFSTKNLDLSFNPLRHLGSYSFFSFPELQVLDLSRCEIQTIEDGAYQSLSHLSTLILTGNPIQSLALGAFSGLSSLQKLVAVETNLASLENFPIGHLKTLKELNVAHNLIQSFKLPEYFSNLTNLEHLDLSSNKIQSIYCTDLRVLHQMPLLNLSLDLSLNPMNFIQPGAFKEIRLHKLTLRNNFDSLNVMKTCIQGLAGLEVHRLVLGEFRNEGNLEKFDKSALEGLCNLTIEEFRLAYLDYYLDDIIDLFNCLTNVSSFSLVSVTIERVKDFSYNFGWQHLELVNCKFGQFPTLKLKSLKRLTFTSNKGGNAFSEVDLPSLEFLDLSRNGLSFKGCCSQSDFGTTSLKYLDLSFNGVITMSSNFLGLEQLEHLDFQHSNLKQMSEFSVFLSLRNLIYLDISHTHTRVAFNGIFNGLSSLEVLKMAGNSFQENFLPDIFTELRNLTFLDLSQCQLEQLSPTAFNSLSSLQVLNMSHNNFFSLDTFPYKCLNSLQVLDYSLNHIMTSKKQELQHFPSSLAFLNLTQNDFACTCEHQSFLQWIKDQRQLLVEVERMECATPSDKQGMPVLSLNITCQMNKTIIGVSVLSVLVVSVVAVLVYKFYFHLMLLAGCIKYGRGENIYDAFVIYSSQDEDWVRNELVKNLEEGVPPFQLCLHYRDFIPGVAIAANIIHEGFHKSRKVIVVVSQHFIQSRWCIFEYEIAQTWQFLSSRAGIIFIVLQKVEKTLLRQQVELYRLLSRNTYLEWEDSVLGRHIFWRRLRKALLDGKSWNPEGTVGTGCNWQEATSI

Experiment [1] has as its target T1, FLAG-SREC-I (scavenger receptor associated with endothelial cells I) (human) (UniProt Q14162).
T1 sequence: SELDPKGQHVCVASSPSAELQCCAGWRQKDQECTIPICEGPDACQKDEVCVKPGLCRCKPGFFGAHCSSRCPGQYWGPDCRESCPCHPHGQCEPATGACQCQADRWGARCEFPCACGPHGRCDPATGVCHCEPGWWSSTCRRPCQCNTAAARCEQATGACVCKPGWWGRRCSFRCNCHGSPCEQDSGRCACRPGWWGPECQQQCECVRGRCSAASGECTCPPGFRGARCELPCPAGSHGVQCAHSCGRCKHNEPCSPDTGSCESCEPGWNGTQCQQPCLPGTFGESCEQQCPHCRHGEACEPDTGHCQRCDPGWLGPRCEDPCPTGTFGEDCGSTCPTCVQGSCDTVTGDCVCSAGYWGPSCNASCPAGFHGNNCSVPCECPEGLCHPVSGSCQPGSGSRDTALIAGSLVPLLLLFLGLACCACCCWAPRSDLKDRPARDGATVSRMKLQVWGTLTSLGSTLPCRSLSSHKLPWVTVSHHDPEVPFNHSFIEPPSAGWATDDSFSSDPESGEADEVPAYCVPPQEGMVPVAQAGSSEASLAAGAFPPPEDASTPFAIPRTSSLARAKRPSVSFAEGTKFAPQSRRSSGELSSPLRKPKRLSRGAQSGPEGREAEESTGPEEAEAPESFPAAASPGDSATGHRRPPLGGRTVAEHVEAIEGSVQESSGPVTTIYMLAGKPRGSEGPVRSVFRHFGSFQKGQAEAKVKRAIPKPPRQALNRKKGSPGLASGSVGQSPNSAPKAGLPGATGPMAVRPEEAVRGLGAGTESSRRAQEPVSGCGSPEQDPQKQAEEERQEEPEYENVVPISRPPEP
The experiment is described as follows: co-IP; HEK 293 cells expressing FLAG-SREC-I and TLR4, control, unstimulated (no LPS, no Hsp90); NP-40 lysis buffer (1% Nonidet P-40, 150 mM NaCl, 1 mM EDTA); FLAG-SREC-I immunoprecipitated with FLAG antibody, blotted for TLR4.

Experiment [2] addresses T1, FLAG-SREC-I (scavenger receptor associated with endothelial cells I) (human). The experiment is described as follows: condition: only unstimulated cells, without LPS or Hsp90; co-IP; HEK 293 cells expressing FLAG-SREC-I and TLR4, control, unstimulated (no LPS, no Hsp90); NP-40 lysis buffer (1% Nonidet P-40, 150 mM NaCl, 1 mM EDTA); FLAG-SREC-I immunoprecipitated with FLAG antibody, blotted for TLR4.

Results are given in words; binding and its absence hold for the method and conditions named. Binding seen in cells or lysates may run through a third protein. Some binding calls cover weakened binding; strength is not graded here. Tags and fused reporters may be left off the sequences shown.

With “Toll-like receptor 4 (TLR4) (from UniProt O00206 24-839)”, the values for the binding result in experiment [1] and in experiment [2] were “binds weakly” and “no binding”, respectively.
